Construct, isoform or probe ends are uncertain for at least one entry. For some of these results: A weaker result is weaker than the reference pair of the same experiment. For some of these results: Protein sequences can lack the tags named with them.
How the values were obtained:
Experiment in all cases: EMSA
[1] = biological target: Klenow exo- DNA polymerase-Tbr SSB fusion (Escherichia coli / Thermus brockianus) (UniProt P00582); conditions: 1x ThermoPol buffer, primer present; mobility shift relative to unfused Klenow; protein details: C-terminal Tbr SSB fusion
[2] = biological target: T1, T4 exo- DNA polymerase-Tbr SSB fusion (Bacteriophage T4 / Thermus brockianus) (UniProt P04415); conditions: 1x ThermoPol buffer, primer present; mobility shift relative to unfused T4 polymerase; protein details: C-terminal Tbr SSB fusion
T1 sequence: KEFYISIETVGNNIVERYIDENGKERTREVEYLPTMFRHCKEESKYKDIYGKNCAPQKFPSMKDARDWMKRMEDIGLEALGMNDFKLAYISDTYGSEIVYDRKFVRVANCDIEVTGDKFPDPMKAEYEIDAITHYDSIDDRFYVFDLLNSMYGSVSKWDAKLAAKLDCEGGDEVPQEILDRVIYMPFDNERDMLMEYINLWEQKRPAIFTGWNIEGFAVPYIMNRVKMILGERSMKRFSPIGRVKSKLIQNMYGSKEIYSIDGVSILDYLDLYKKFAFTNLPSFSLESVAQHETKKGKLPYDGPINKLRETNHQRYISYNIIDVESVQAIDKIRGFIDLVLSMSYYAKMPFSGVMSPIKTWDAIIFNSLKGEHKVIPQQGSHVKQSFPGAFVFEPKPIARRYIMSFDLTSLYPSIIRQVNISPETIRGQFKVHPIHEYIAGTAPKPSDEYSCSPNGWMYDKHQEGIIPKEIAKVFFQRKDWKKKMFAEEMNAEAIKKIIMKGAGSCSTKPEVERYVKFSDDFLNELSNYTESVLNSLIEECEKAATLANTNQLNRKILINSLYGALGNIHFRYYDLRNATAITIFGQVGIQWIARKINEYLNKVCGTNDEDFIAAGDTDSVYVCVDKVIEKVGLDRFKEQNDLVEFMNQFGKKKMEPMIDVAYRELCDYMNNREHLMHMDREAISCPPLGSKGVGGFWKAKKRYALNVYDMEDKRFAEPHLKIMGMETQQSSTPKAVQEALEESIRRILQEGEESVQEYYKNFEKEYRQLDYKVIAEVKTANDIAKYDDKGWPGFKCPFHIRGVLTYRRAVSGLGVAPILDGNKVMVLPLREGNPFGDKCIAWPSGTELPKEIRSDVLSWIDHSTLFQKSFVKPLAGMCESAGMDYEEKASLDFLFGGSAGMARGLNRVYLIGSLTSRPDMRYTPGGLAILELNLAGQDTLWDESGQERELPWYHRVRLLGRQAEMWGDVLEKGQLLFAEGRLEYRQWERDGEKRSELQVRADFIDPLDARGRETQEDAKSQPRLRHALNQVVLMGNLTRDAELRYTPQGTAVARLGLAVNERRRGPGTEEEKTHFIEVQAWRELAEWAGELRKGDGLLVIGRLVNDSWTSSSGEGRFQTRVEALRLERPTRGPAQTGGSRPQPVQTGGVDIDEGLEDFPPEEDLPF

[3] = biological target: Klenow exo- DNA polymerase (Escherichia coli) (UniProt P00582); conditions: 1x ThermoPol buffer, primer present; no shift comparable to fusion
[4] = biological target: T2, T4 exo- DNA polymerase (Bacteriophage T4) (UniProt P04415); conditions: 1x ThermoPol buffer, primer present; no shift comparable to fusion
T2 sequence: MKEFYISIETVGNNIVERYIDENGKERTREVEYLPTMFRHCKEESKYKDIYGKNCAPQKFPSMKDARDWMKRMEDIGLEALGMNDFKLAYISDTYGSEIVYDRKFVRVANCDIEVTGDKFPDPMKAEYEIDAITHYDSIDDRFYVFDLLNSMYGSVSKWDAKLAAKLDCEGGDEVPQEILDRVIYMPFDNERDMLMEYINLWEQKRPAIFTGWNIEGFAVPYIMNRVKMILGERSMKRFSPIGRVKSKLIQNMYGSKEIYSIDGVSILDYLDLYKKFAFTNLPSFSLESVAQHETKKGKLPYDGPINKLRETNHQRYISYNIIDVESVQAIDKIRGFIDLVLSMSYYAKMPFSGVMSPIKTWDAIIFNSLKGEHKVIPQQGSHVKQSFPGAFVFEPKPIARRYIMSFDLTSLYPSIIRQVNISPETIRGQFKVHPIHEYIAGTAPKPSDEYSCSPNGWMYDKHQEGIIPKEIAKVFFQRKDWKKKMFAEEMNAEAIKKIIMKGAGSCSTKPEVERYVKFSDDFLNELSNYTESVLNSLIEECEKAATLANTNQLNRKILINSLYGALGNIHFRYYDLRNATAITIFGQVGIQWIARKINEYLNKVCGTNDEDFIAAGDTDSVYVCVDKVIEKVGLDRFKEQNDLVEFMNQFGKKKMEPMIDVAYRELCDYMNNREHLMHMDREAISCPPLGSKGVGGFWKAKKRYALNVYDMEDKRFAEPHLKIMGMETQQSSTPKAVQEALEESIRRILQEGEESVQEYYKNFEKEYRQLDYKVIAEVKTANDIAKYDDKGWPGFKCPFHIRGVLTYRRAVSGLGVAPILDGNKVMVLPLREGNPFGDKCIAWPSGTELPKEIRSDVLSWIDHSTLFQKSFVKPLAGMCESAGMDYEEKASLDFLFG

## CGCCAGGGTTTTCCCAGTCACGAC [M13 ssDNA with annealed primer]
[1]
  binding result: binds
[2]
  binding result: binds
[3]
  binding result: binds more weakly
[4]
  binding result: binds more weakly

From patent US20130022980
